Measured values published in PMC8745574.
These are yes or no findings as the source states them, for the method shown. For some of these results: In cells and extracts the contact can be indirect. Some binding calls cover weakened binding; strength is not graded here. For some of these results: Sequences can lack the tags named with a protein.

Chains of the proteins cited; added tags and fusions are not shown.
UniProt Q8H1G0: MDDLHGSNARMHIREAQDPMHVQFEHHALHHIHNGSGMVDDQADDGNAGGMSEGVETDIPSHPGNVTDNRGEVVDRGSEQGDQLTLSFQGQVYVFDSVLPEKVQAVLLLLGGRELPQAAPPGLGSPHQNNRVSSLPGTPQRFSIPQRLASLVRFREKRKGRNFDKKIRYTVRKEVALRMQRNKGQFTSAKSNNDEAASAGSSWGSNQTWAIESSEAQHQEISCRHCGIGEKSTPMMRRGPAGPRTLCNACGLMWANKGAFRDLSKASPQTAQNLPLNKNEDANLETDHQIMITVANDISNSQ
UniProt Q94K07: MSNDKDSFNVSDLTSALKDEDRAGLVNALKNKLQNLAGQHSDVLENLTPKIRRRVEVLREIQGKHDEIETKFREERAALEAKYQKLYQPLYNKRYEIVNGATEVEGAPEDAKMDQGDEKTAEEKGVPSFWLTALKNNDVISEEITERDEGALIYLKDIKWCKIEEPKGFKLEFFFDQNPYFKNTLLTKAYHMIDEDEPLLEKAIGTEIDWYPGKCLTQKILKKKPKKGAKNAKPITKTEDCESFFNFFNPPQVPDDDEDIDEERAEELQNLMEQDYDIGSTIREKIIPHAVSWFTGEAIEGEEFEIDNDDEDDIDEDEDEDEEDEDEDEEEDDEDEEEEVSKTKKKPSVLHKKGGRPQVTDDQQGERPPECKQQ
UniProt Q93ZV7: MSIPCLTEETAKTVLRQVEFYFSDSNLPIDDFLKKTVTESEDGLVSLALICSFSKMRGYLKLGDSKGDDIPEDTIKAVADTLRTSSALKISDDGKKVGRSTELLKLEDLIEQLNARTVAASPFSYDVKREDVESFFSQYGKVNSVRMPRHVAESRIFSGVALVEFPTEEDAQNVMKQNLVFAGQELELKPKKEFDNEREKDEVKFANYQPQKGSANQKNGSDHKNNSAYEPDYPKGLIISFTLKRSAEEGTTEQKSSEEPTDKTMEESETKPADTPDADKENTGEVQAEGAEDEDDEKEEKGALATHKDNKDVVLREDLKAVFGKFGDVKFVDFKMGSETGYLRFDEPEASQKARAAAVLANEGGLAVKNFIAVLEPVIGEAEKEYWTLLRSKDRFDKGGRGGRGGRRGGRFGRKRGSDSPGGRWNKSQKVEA
UniProt Q96321: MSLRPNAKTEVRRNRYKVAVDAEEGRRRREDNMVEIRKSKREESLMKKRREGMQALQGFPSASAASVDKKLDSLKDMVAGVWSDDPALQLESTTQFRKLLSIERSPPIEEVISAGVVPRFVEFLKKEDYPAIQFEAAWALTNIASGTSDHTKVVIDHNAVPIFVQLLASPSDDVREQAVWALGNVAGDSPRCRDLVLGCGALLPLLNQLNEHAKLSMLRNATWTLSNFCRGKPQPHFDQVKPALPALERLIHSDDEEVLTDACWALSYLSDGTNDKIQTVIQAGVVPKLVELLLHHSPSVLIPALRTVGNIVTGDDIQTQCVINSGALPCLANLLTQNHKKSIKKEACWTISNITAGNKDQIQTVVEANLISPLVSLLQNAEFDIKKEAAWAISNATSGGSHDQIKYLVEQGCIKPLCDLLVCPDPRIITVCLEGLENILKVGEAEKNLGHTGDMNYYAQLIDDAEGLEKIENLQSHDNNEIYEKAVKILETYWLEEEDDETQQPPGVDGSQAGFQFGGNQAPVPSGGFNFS
UniProt F4JL11: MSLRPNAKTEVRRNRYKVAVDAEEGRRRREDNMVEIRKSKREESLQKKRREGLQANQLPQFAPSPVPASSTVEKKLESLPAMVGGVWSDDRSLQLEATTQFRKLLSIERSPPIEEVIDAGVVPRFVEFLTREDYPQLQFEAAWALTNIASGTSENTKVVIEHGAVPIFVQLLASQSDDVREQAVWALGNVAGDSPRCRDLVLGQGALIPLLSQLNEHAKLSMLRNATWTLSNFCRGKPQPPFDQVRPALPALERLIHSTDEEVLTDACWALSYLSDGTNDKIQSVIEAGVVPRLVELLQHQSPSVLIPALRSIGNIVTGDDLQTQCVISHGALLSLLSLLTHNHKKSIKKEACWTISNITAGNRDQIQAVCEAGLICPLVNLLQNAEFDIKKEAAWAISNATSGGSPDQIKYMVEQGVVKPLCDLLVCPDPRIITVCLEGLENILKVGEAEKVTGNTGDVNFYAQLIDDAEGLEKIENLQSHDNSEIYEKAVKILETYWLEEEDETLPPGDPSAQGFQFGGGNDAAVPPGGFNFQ
UniProt O04294: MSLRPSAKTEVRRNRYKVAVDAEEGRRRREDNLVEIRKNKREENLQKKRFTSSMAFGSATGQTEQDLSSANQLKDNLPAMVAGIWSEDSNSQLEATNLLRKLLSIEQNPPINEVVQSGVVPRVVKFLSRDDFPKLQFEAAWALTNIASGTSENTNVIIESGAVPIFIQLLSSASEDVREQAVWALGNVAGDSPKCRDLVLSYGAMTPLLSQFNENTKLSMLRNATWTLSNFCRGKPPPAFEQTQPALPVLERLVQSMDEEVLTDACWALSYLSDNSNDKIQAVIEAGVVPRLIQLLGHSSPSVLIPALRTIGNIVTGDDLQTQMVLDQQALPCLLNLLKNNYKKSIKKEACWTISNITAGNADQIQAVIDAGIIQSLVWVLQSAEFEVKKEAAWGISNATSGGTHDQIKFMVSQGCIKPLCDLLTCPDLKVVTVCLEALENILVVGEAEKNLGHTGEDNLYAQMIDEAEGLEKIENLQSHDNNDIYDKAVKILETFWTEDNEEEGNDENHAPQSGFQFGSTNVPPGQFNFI
UniProt Q94A52: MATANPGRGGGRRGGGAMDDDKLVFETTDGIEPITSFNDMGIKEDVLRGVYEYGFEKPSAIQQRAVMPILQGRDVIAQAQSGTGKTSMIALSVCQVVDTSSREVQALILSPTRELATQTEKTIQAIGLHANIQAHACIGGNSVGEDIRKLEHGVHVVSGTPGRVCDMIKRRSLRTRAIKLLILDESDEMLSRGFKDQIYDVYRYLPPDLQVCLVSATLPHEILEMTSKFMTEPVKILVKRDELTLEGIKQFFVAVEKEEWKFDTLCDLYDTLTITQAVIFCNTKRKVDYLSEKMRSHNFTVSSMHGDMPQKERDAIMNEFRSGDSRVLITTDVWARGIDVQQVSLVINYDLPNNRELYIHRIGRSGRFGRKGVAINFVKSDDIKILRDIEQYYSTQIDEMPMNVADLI
UniProt Q9SZI2: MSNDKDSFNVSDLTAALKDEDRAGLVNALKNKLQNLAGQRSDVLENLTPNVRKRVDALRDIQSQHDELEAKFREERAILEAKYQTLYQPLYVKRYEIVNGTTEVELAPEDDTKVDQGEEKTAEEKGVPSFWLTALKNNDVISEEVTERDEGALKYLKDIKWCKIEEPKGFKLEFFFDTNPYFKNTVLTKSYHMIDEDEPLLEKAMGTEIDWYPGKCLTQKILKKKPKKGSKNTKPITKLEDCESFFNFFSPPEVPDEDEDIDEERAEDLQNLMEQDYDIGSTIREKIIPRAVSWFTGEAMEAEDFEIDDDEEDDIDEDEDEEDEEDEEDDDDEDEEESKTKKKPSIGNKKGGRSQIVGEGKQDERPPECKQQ
UniProt O22467: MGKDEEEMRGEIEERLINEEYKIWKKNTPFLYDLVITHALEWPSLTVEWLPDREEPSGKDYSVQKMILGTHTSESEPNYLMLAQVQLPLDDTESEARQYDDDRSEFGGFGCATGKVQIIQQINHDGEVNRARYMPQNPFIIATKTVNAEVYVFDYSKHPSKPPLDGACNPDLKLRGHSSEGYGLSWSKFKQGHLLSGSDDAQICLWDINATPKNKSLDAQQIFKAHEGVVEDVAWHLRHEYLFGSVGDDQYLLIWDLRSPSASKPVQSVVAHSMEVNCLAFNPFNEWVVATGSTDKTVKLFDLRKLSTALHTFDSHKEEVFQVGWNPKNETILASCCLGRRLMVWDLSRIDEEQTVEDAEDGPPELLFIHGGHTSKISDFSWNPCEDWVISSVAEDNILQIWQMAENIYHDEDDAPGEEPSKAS
UniProt O80480: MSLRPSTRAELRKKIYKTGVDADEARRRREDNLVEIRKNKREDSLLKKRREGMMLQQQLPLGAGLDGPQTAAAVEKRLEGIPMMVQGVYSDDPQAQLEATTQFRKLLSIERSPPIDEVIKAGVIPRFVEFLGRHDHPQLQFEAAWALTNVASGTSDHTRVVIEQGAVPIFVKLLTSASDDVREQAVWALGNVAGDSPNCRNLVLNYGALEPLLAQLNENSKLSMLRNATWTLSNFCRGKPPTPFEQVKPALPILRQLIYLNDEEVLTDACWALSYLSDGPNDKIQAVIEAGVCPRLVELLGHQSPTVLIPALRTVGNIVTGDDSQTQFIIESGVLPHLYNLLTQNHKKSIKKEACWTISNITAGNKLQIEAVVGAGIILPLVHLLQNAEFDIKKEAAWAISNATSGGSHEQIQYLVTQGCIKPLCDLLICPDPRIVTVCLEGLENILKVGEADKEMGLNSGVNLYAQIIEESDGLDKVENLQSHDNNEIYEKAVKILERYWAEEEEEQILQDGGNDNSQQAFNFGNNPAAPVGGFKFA

What was measured:
[1] = biological target: T1, AtTERT TEN construct (1-233 aa) (Arabidopsis thaliana) (UniProt Q9SPU7); experiment: two-hybrid; Matchmaker GAL4 system, pGADT7-DEST/pGBKT7-DEST, S. cerevisiae PJ69-4α, 30 °C; growth on -LWH plates (with increasing 3-aminotriazol) and -LWHAde plates
T1 sequence: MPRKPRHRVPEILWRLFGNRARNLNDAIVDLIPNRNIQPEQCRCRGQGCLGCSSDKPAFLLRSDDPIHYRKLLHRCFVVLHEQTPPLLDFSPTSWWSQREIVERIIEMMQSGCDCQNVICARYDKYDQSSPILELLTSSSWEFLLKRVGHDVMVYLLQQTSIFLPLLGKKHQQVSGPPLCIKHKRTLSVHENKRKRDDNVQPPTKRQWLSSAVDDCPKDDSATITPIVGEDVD

[2] = biological target: T2, POT1a (Arabidopsis thaliana) (UniProt Q56Y52); experiment: as above
T2 sequence: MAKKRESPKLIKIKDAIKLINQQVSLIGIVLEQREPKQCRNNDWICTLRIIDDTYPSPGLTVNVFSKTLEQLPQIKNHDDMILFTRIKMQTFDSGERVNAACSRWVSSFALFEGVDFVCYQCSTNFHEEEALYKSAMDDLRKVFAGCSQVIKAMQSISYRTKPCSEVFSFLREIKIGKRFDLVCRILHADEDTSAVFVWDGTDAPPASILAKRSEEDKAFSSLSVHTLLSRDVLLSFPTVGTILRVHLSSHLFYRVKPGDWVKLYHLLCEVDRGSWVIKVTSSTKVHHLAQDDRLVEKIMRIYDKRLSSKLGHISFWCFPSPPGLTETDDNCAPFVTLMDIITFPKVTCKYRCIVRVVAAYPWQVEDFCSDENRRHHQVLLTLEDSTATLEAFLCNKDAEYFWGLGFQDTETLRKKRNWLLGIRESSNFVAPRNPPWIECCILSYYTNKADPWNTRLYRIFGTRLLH

[3] = biological target: T3, AtTERT RID construct (1-271 aa) (Arabidopsis thaliana) (UniProt Q9SPU7); experiment: as above
T3 sequence: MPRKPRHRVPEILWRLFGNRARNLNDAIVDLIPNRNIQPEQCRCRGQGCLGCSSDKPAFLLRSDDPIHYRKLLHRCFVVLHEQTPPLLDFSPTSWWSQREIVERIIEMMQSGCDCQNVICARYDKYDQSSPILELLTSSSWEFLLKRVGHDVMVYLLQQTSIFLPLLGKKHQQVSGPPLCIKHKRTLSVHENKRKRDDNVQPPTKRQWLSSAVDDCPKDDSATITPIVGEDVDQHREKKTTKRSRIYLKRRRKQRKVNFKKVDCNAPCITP

[4] = biological target: T4, AtTERT Fw3NNLS construct (229-582 aa) (Arabidopsis thaliana) (UniProt Q9SPU7); experiment: as above
T4 sequence: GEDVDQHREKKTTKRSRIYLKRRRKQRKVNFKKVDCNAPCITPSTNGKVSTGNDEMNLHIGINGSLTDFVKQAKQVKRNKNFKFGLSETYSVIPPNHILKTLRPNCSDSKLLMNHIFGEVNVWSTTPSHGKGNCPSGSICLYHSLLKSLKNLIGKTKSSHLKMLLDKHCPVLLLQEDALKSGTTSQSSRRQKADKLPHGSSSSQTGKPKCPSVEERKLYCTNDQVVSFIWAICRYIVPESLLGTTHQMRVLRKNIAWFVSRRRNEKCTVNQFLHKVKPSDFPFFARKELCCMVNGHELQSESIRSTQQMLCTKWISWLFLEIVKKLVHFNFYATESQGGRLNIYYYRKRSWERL

[5] = biological target: T5, cYFP-RID (N. benthamiana) (Arabidopsis thaliana) (UniProt Q9SPU7); experiment: split reporter; BiFC, nYFP/cYFP constructs (pE-SPYNE-GW, pE-SPYCE-GW, pC-SPYNE-GW) transiently expressed in N. benthamiana leaves, confocal microscopy after 3 days
T5 sequence: T3 sequence

[6] = biological target: T6, cYFP-RID (Arabidopsis protoplasts) (Arabidopsis thaliana) (UniProt Q9SPU7); experiment: split reporter; BiFC, pSAT1-nEYFP-C1/pSAT1-cEYFP-C1-B constructs in Arabidopsis protoplasts, confocal microscopy 16 h after transfection
T6 sequence: T3 sequence

Substance	binding [1]	binding [3]	further results
ZML2 (ZIM-LIKE 2) (from UniProt Q8H1G0 1-302)	binds	–	binding [2]: binds
NAP1;3 (from UniProt Q94K07 1-374)	–	binds	binding [4]: binds
La1 (from UniProt Q93ZV7 1-433)	–	–	binding [2]: no binding
ImpA1 (from UniProt Q96321 1-532)	binds	binds	–
nYFP-ImpA2 (from UniProt F4JL11 1-535)	–	–	binding [5]: binds
ImpA3 (from UniProt O04294 1-531)	binds	binds	–
RH2 nYFP construct (N. benthamiana) (from UniProt Q94A52 1-408)	–	–	binding [5]: binds
NAP1;1 (from UniProt Q9SZI2 1-372)	–	binds	binding [4]: binds
RH2 nYFP construct (protoplasts) (from UniProt Q94A52 1-408)	–	–	binding [6]: binds
MSI1 (multicopy suppressor of IRA 1) (from UniProt O22467 1-424)	–	–	binding [2]: no binding
nYFP-ImpA1 (from UniProt Q96321 1-532)	–	–	binding [5]: binds
ImpA4 (from UniProt O80480 1-538)	binds	binds	–
ImpA2 (from UniProt F4JL11 1-535)	binds	binds	–
RNA helicase 2 (RH2) (from UniProt Q94A52 1-408)	–	binds	–
nYFP-ImpA3 (from UniProt O04294 1-531)	–	–	binding [5]: binds
